According to the supplement of paper PMC10331698:
± gives the standard deviation of the averaged measurements. Most values lie at the level of the controls, where differences are scatter.

Experiments:
Assay in all cases: level (log10 ratio to DMSO vehicle control); higher = higher biomarker level / cell amount than vehicle control
[1] = compound: O=C(O)C(F)(F)C(F)(F)C(F)(F)F [Perfluorobutanoic acid]; details: 2200 nM; in DMSO
Method: (§1)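 BioMAP Diversity Plus panel of 12 human primary cell co-culture systems (3C, 4H, LPS, SAg, BT, BF4T, BE3C, CASM3C, HDF3CGF, KF3CT, MyoF, Mphg). Compounds were added 1 h before stimulation and left for 24 h (MyoF 48 h; BT 72 h for soluble read-outs or 6 d for IgG). Biomarkers were read by ELISA, cytotoxicity by SRB, PBMC viability and proliferation by Alamar Blue. Each well value was divided by the mean of 8 DMSO control wells on the same plate and log10 transformed; duplicate blinded samples were tested at 4 concentrations.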

[2] = compound: NC(=O)C(F)(F)C(F)(F)C(F)(F)C(F)(F)C(F)(F)C(F)(F)C(F)(F)F [Perfluorooctanamide]; details: 2200 nM; in DMSO
Method: as §1

[3] = compound: O=C(O)C(F)(F)C(F)(F)OC(F)(F)F [Perfluoro-3-methoxypropanoic acid]; details: 2200 nM; in DMSO
Method: as §1

[4] = compound: O=P(O)(O)CCC(F)(F)C(F)(F)C(F)(F)C(F)(F)C(F)(F)C(F)(F)C(F)(F)C(F)(F)F [((Perfluorooctyl)ethyl)phosphonic acid]; details: 2200 nM; in DMSO
Method: as §1

[5] = compound: FC(F)(F)C(F)(F)C(F)(F)C(F)(F)C(F)(F)C(F)(F)C(F)(F)CCI [1-Iodo-1H,1H,2H,2H-perfluorononane]; details: in DMSO
Method: as §1

[6] = compound: FC(F)(F)C(F)(F)C(F)(F)C(F)(F)C(F)(F)C(F)(F)C(F)(F)I [1-Iodopentadecafluoroheptane]; details: in DMSO
Method: as §1

[7] = compound: O=C(O)C(F)(F)OC(F)(F)C(F)(F)OC(F)(F)C(=O)O [Perfluoro-3,6-dioxaoctane-1,8-dioic acid]; details: 2200 nM; in DMSO
Method: as §1

[8] = compound: O=C(O)C(F)(F)C(F)(F)C(F)(F)C(F)(F)C(F)(F)C(F)(F)C(F)(F)C(F)(F)C(F)(F)C(F)(F)F [Perfluoroundecanoic acid]; details: in DMSO
Method: as §1

[9] = compound: O=C(O)C(F)(F)OC(F)(F)C(F)(F)OC(F)(F)C(F)(F)C(F)(F)C(F)(F)F [Perfluoro-3,6-dioxadecanoic acid]; details: 2200 nM; in DMSO
Method: as §1

[10] = compound: OCC(F)(F)C(F)(F)C(F)(F)C(F)(F)C(F)(F)C(F)(F)C(F)(F)C(F)(F)C(F)(F)C(F)(F)C(F)(F)F [11:1 Fluorotelomer alcohol]; details: in DMSO
Method: as §1

[11] = compound: FC(F)C(F)(F)COCC1CO1 [((2,2,3,3-Tetrafluoropropoxy)methyl)oxirane]; details: 2200 nM; in DMSO
Method: as §1

[12] = compound: O=C(O)C=CC(F)(C(F)(F)F)C(F)(F)F [3-(Perfluoroisopropyl)-2-propenoic acid]; details: in DMSO
Method: as §1

[13] = compound: OCCC(F)(F)C(F)(F)C(F)(F)C(F)(F)C(F)(F)C(F)(F)C(F)(F)C(F)(F)F [8:2 Fluorotelomer alcohol]; details: 2200 nM; in DMSO
Method: as §1

[14] = compound: O=C(O)C(F)(F)C(F)(F)F [Perfluoropropanoic acid]; details: 2200 nM; in DMSO
Method: as §1

[15] = compound: O=S(=O)(Cl)C(F)(F)C(F)(F)C(F)(F)C(F)(F)C(F)(F)C(F)(F)C(F)(F)C(F)(F)F [Perfluoro-1-octanesulfonyl chloride]; details: 2200 nM; in DMSO
Method: as §1

[16] = compound: O=C(O)C(F)(F)C(F)(F)C(F)(F)C(F)(F)C(F)(F)C(F)(F)C(F)(F)C(F)F [9-H-Perfluorononanoic acid]; details: 2200 nM; in DMSO
Method: as §1

[17] = compound: C=CC(=O)OCC(F)(F)C(F)(F)C(F)(F)C(F)(F)COC(=O)C=C [1H,1H,6H,6H-Perfluorohexane-1,6-diol diacrylate]; details: 2200 nM; in DMSO
Method: as §1

[18] = compound: C=C(C)C(=O)OCC(F)(F)C(F)(F)C(F)(F)F [2,2,3,3,4,4,4-Heptafluorobutyl methacrylate]; details: 2200 nM; in DMSO
Method: as §1

Test System	level (log10) [1]	level (log10) [2]	level (log10) [3]	level (log10) [4]	level (log10) ([5]; 740 nM)	level (log10) ([5]; 2200 nM)	level (log10) ([5]; 6700 nM)	level (log10) ([5]; 20000 nM)	level (log10) ([6]; 740 nM)	level (log10) ([6]; 2200 nM)	level (log10) ([6]; 6700 nM)	level (log10) ([6]; 20000 nM)	level (log10) [7]	level (log10) ([8]; 740 nM)	level (log10) ([8]; 2200 nM)	level (log10) [9]	level (log10) ([10]; 370 nM)	level (log10) ([10]; 1100 nM)	level (log10) ([10]; 3300 nM)	level (log10) ([10]; 10000 nM)	level (log10) [11]	level (log10) ([12]; 2200 nM)	level (log10) ([12]; 6700 nM)	level (log10) ([12]; 20000 nM)	level (log10) ([12]; 60000 nM)	level (log10) [13]	level (log10) [14]	level (log10) [15]	level (log10) [16]	level (log10) [17]	level (log10) [18]
3C:CXCL8/IL-8	-0.0065 ± 0.042	-0.004 ± 0.017	0.014 ± 0.0057	0.0325 ± 0.042	0.0045 ± 0.036	-0.0175 ± 0.016	0.0085 ± 0.011	0.0165 ± 0.005	0.026 ± 0.061	0.004 ± 0.03	0.004 ± 0.0057	0.0655 ± 0.021	0.005 ± 0.011	0.0285 ± 0.05	0.0015 ± 0.0035	0.01 ± 0.025	-0.018 ± 0.034	-0.022 ± 0.027	-0.0245 ± 0.046	0.019 ± 0.082	0.0055 ± 0.032	0.007 ± 0.0099	-0.001 ± 0.038	-0.0275 ± 0.0092	0.028 ± 0.033	0.0235 ± 0.087	0.027 ± 0.048	0.0465 ± 0.061	-0.013 ± 0.018	0.0075 ± 0.05	0.028 ± 0.079
3C:CXCL9/MIG	-0.007 ± 0.014	-0.002 ± 0.016	0.0105 ± 0.0021	0.01 ± 0.0028	0.006 ± 0.0071	0.003 ± 0.0042	0.002 ± 0.0042	0.007 ± 0.013	-0.003 ± 0.0014	-0.0015 ± 0.0078	0.001 ± 0.0099	-0.002 ± 0.0042	0.005 ± 0.0085	-0.0055 ± 0.0092	0.0015 ± 0.00071	-0.007 ± 0.027	-0.0065 ± 0.00071	-0.001 ± 0.014	0.0045 ± 0.0064	0.0145 ± 0.016	0.0015 ± 0.022	0.013 ± 0.014	0.004 ± 0.0071	-0.0105 ± 0.0064	0.0045 ± 0.016	-0.0005 ± 0.005	0.003 ± 0.0057	-0.01 ± 0.0057	-0.0005 ± 0.00071	-0.0015 ± 0.0035	0.004 ± 0.024
3C:HLA-DR	-0.0185 ± 0.011	0.0045 ± 0.019	0.016 ± 0.033	0.0345 ± 0.0078	0.0165 ± 0.005	0.0135 ± 0.018	-0.001 ± 0.017	0.0155 ± 0.025	-0.024 ± 0.02	-0.015	-0.019 ± 0.0057	-0.0075 ± 0.015	0.0005 ± 0.0064	-0.014 ± 0.016	-0.025 ± 0.023	0.048 ± 0.028	-0.0055 ± 0.005	-0.019 ± 0.0042	-0.034 ± 0.011	-0.04 ± 0.016	0.037 ± 0.017	0.0145 ± 0.0035	0.0095 ± 0.005	-0.0135 ± 0.022	-0.003 ± 0.028	-0.004 ± 0.047	0.015	-0.014 ± 0.021	0.002 ± 0.017	-0.0025 ± 0.0078	0.007 ± 0.023
3C:Proliferation	-0.0065 ± 0.053	0.007 ± 0.058	-0.04 ± 0.055	-0.0785 ± 0.076	-0.0365 ± 0.022	0.001 ± 0.0028	-0.019 ± 0.0085	-0.027 ± 0.0057	0.0035 ± 0.032	0.009 ± 0.0071	0.0035 ± 0.013	-0.0125 ± 0.0078	0.0015 ± 0.08	-0.01 ± 0.048	0.041 ± 0.013	-0.0875 ± 0.1	-0.0685 ± 0.081	-0.189 ± 0.012	-0.436 ± 0.042	-0.338 ± 0.051	-0.0455 ± 0.011	-0.039 ± 0.086	-0.0185 ± 0.09	-0.002 ± 0.037	-0.0145 ± 0.049	-0.044 ± 0.044	-0.0415 ± 0.059	-0.0445 ± 0.063	-0.015 ± 0.047	-0.131 ± 0.071	-0.012 ± 0.035
3C:SRB	-0.008	-0.008 ± 0.014	-0.015 ± 0.014	0.0005 ± 0.016	0.014 ± 0.024	0.0055 ± 0.0064	0.0125 ± 0.015	0.0295 ± 0.03	-0.0035 ± 0.011	-0.003 ± 0.0042	-0.001	0.001 ± 0.0014	-0.0125 ± 0.0078	0.021 ± 0.0099	0.0145 ± 0.0021	-0.0255 ± 0.018	0.0065 ± 0.012	-0.043 ± 0.0014	-0.115 ± 0.021	-0.116 ± 0.014	-0.005 ± 0.0099	-0.0045 ± 0.012	0.0035 ± 0.0078	0.0055 ± 0.019	0.0155 ± 0.015	-0.0195 ± 0.023	0.0005 ± 0.0078	-0.0105 ± 0.015	0.005 ± 0.0014	0.011 ± 0.0099	-0.003 ± 0.0014
4H:CCL2/MCP-1	-0.0125 ± 0.00071	0.0035 ± 0.036	0.0215 ± 0.061	0.015 ± 0.027	0.0095 ± 0.11	-0.0495 ± 0.012	-0.0175 ± 0.019	0.0395 ± 0.1	-0.011 ± 0.014	-0.019 ± 0.018	-0.015 ± 0.033	0.0095 ± 0.037	0.025 ± 0.045	-0.0045 ± 0.044	-0.024 ± 0.0014	0.025 ± 0.045	0.0375 ± 0.056	0.0335 ± 0.033	0.0495 ± 0.00071	0.0835 ± 0.023	0.043 ± 0.028	0.008 ± 0.048	0.008 ± 0.025	-0.0105 ± 0.022	0.0005 ± 0.0064	0.003 ± 0.058	-0.02 ± 0.011	0.0015 ± 0.042	-0.0095 ± 0.096	-0.0085 ± 0.005	0.01 ± 0.028
4H:CCL26/Eotaxin-3	-0.024 ± 0.014	0.002 ± 0.021	-0.0095 ± 0.037	0.015 ± 0.021	0.0345 ± 0.012	-0.003 ± 0.027	0.018 ± 0.0057	-0.004 ± 0.028	0.022 ± 0.023	0.0305 ± 0.026	0.0365 ± 0.016	0.032 ± 0.027	-0.014 ± 0.013	-0.006 ± 0.048	-0.0115 ± 0.04	0.026 ± 0.023	0.0105 ± 0.0064	0.0025 ± 0.0035	-0.0055 ± 0.0092	-0.0085 ± 0.0078	0.035 ± 0.024	-0.005 ± 0.027	-0.011 ± 0.0014	-0.011 ± 0.0014	0.016 ± 0.0085	0.0485 ± 0.079	-0.004 ± 0.0014	0.0235 ± 0.076	0.0145 ± 0.029	-0.0165 ± 0.021	-0.0075 ± 0.018
